Data: patent publication US20260226144A1
Residue numbers refer to the chain shown, from its start. No constants are given. Whether binding was seen depends on the method and setting. Some results given as binding are weak or reduced against the parent protein; the word gives no strength.

Chains of the proteins cited; added tags and fusions are not shown. Residues count along the entry.
UniProt P41271, residues 17-181: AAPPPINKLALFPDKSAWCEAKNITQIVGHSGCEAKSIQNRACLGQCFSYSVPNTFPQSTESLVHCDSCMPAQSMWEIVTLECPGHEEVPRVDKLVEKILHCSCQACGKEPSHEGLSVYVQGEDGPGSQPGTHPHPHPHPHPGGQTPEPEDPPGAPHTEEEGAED

B1: Antibody YU1019-A12 (antibody, human IgG1, V domains shown)
VH: EVQLLESGPGLVKPSQTLSLTCTVSGGSISSGDYYWSWIRQPPGKGLEWIGYIYYSGSTYYNPSLKSRVTISVDTSKNQFSLKLSSVTAADTAVYYCARGRRLLLFHWGQGTTVTVSS
VL: QSVLTQPPSVSAAPGQKVTISCSGSGSSIGNNYVSWYQQVPGTPPKLLIYDNNKRASGIPDRFSGSKSGTSATLGITGLQTGDEADYYCGTWDNSLSAVVFGGGTKLTVL
B2: Antibody YU1018-D06 (antibody, human IgG1, V domains shown)
VH: QVQLVESGPGLVKPSQTLSLTCTVSGGSISSGGYYWSWIRQHPGKGLEWIGYIYYSGSTYYNPSLKSRVTISVDTSKNQFSLKLSSVTAADTAVYYCARSGAAGIPWFDPWGQGTLVTVSS
VL: B1 VL with G26S, S28N, V40L, P44A, D51E, K54E, A56P, F63L, G75A, N94S

What was measured:
[1] = target: cynomolgus ("cyno") NBL1 (cynomolgus); experiment: ELISA, IgG1 format
[2] = target: human NBL1 (neuroblastoma suppressor of tumorigenicity 1), recombinant (human) (UniProt P41271); experiment: ELISA, IgG1 format

Row | Binder | binding [1] | binding [2]
1 | B1 | binds | binds
2 | B2 | binds | binds
